Measurements from PubChem BioAssay AID504834 (National Center for Advancing Translational Sciences (NCATS), 2011).
The campaign covered roughly 320,000 compounds. About 22,000 (6.9%) were called active. The inconclusive results got no clear call from the source; some entries with a clear call stand among them for comparison. The call rests on the fitted dose curve; in most records, active means well fitted inhibition curve with a large enough effect; inconclusive means small, poorly fitted or top-dose-only effect, or another doubt; inactive means no such curve, though single readings can be large or run the other way. A potency beside an inconclusive call is a rough fit, not a confirmed value.

assay: Primary qHTS for delayed death inhibitors of the malarial parasite plastid, 96 hour incubation; conditions: P. falciparum luciferase reporter growth; series mostly up to 28.7 µM; activity change, negative = inhibition: at the top concentration
Method in brief: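 Delayed-death screen, second-generation endpoint: infected erythrocytes, 2% hematocrit, 0.05% parasitemia final; 96 hours at 37 C, 5% CO2; luciferase detection reagent; luminescence decrease equals reduced growth.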
On the % scale 0 is the no-effect control and ±100 the full control effect; potency means the concentration at half of the fitted maximal effect.

SMILES | Potency | activity change, negative = inhibition
Cc1cc(S(=O)(=O)Nc2nc(CN3CCOCC3)nc3sc4c(c23)CCCC4)ccc1F | inconclusive: 13.1 µM [inhibitor, single point] | 
c1ccc(COc2cccc(CN3CCc4ccccc4C3)c2)cc1 | inconclusive: 7.38 µM [inhibitor, partial curve, poor fit] | 
O=C(N=NC(=O)c1ccco1)c1ccc2c(O)n(N3C(=O)c4ccccc4C3=O)c(O)c2c1 |  | inactive: 9.12%
CCCC(=O)OCC(=O)Nc1ccc(OC(F)F)cc1 | inconclusive: 0.738 µM [inhibitor, partial curve] | 
COc1ccc2[nH]cc(CCNC(=O)CS(=O)(=O)Cc3ccccc3)c2c1 | inconclusive: 16.5 µM [inhibitor, single point] | 
Cc1cc(NC(=O)CCC(=O)NNC(=O)c2ccc(C(C)(C)C)cc2)no1 |  | inactive: -16.1%
CC(C)(C)C1CCC2(CC1)C(Nc1cccc(C(F)(F)F)c1)=NC(=S)N2CC#N (stereo not given) | inconclusive: 8.28 µM [inhibitor, partial curve, poor fit] | 
CC(=O)NC(Cc1ccccc1)C(=O)N1CCN(C(=O)c2ccco2)CC1 (stereo not given) |  | inactive: 38.3%
O=c1[nH]c(-c2ccccc2)c(-c2ccccc2)[nH]1 | inconclusive: 2.33 µM [inhibitor, full curve] | 
CCOC(=O)C(C(=O)OCC)C(C[N+](=O)[O-])c1ccccc1 (stereo not given) |  | inactive: -12.9%
Cc1cc(F)ccc1NC(=O)C(C)n1c2ccccc2c2nc(=O)cc(C)n21 (stereo not given) | inconclusive: 0.329 µM [inhibitor, full curve, poor fit] | 
COC(=O)COc1cccc2c(=O)n(CC(=O)N3CCCCC3)ccc12 | inconclusive: 18.5 µM [inhibitor, single point] | 
Cc1ccc(-c2onc(C)c2C)cc1S(=O)(=O)N1CCOc2ccccc21 |  | inactive: 51.6%
COc1ccc(NC(=O)C(CC(=O)O)Cc2ccc(Br)cc2)cc1 (stereo not given) | inconclusive: 4.15 µM [inhibitor, partial curve, poor fit] | 
CCOc1ccc2[nH]c(=O)c(CN(Cc3ccc(F)cc3)C(=O)N3CCCC3)cc2c1 |  | inactive: 395%
CC(=O)OC1(C(F)(F)F)Oc2ccccc2NC1=O (stereo not given) |  | inactive: 42.3%
CC1Cc2ccccc2N1C(=O)CCS(=O)(=O)c1cccs1 (stereo not given) | inconclusive: 10.4 µM [inhibitor, partial curve] | 
COc1c(OC(C)=O)ccc(/C=N\NC(=O)c2ccc(Br)cc2)c1[N+](=O)[O-] | inconclusive: 10.4 µM [inhibitor, single point] | 
COc1ccc(NC(=O)c2cccc(N3C(=O)C4C5C=CC(C6CC56)C4C3=O)c2)c(OC)c1 (stereo not given) | inconclusive: 18.5 µM [inhibitor, single point] | 
CC(=O)Nc1ccc(S(=O)(=O)NC2(C(F)(F)F)C(=O)Nc3c2c(=O)[nH]c(=O)n3Cc2cccnc2)cc1 (stereo not given) |  | inactive: 26.2%
Nc1ccc(Cl)c(S(=O)(=O)Nc2ccc(Cl)cc2)c1 |  | inactive: 0.915%
COc1cc(OC)cc(C(=O)NC(C(=O)Nc2ccc3c(c2)CCC3)C(C)C)c1 (stereo not given) | inconclusive: 10.4 µM [inhibitor, single point] | 
COc1ccccc1N(CC(O)COc1ccc(C)cc1)S(=O)(=O)c1ccccc1 (stereo not given) | active: 2.08 µM | 
C/C(CCC(C)C)=N\NC(=S)Nc1cc(S(=O)(=O)N2CCOCC2)ccc1N1CCOCC1 | inconclusive: 14.7 µM [inhibitor, partial curve, poor fit] | 

SMILES | Potency | activity change, negative = inhibition
CCN(c1ccc(OC)cc1)S(=O)(=O)N1CCCC(C(=O)NCc2ccccc2Br)C1 (stereo not given) | inconclusive: 18.5 µM [inhibitor, single point] | 
O=C(Cn1nnc(-c2ccc(F)cc2)n1)Nc1cccc(S(=O)(=O)N2CCCC2)c1 | active: 13.1 µM | 
CC(NC=O)c1nc2ccccc2n1CCc1ccccc1 (stereo not given) | inconclusive: 11.7 µM [inhibitor, single point] | 
Cc1cc(C)nc(SCc2nnc(SCC(N)=O)o2)n1 | inconclusive: 18.5 µM [inhibitor, single point] | 
Cc1nn(C(=O)c2cccc([N+](=O)[O-])c2)c(C)c1Cl | inconclusive: 0.465 µM [inhibitor, partial curve, poor fit] | 
CC1(C(=O)Nc2ccccc2)Cc2ccccc2C(=O)O1 (stereo not given) | active: 9.28 µM | 
Cn1c(COc2ccccc2)nnc1SCCC(=O)Nc1ccccc1 |  | inactive: 144%
CC(=O)CSc1nc2c(c(=O)[nH]c(=O)n2C)n1CCCc1ccccc1 | inconclusive: 18.5 µM [inhibitor, single point] | 
COc1ccc(C(=O)Nc2ccc3c(c2)nc(CCNC(=O)c2ccco2)n3C)cc1 |  | inactive: 7.79%
COc1ccc(-n2c(SCC(=O)Nc3ccccc3)nc(O)cc2=O)cc1 |  | inactive: -8.65%
COc1ccc(C(=O)NNC(=O)COc2ccc(Cl)cc2)c(OC)c1 | inconclusive: 3.29 µM [inhibitor, single point] | 
COc1ccc(NCC(=O)N/N=C/C=C\c2ccccc2)cc1 | active: 2.62 µM | 
CC(C)C(c1nnnn1C1CCCC1)N1CCN(C(=O)c2ccco2)CC1 (stereo not given) | inconclusive: 4.15 µM [inhibitor, partial curve, poor fit] | 
COc1cccc(Cn2ncc3c4sc(B(O)O)cc4n(C)c3c2=O)c1 | inconclusive: 11.7 µM [inhibitor, single point] | 
O=C(N/N=C/c1ccncc1)c1ccc(NC(=O)c2ccc(Cl)cc2)cc1 |  | inactive: -8.24%
Clc1ccc(CN2C3=NCCCN3c3ccccc32)cc1 | inconclusive: 14.7 µM [inhibitor, partial curve, poor fit] | 
COc1cc(NS(=O)(=O)c2ccc(NC(=S)NC(=O)c3sc4ccccc4c3Cl)cc2)ncn1 |  | inactive: -29.5%
Cc1cc(C)cc(OCC(=O)NNC(=S)NC(=O)C2CC2)c1 | inconclusive: 18.5 µM [inhibitor, single point] | 
Cc1ccc(NC(=O)COc2ccc(Br)cc2C)cc1 |  | inactive: -18.5%
CCOc1ncnc2c1oc1nc(CC(C)C)c3c(c12)CC(C)(C)OC3 | inconclusive: 13.1 µM [inhibitor, single point] | 
Cc1ccc(C)c(OCCCC(=O)Nc2ccccc2C(N)=O)c1 |  | inactive: 38.7%
COc1ccc(-c2csc(NC3OC(=O)c4c3ccc(OC)c4OC)n2)cc1OC (stereo not given) | inconclusive: 11.7 µM [inhibitor, partial curve, poor fit] | 
CCc1nc(SCc2ccccn2)c2c(=O)n(C)c(=O)n(C)c2n1 | inconclusive: 13.1 µM [inhibitor, single point] | 
Cc1ccc(C)c(N(C(=O)CNC(=O)c2ccco2)C(C(=O)NC2CCCCC2)c2cccnc2)c1 (stereo not given) | inconclusive: 10.4 µM [inhibitor, single point] | 

Structures listed so far that contain a tert-butyl group:
SMILES | Potency | activity change, negative = inhibition
Cc1cc(NC(=O)CCC(=O)NNC(=O)c2ccc(C(C)(C)C)cc2)no1 |  | inactive: -16.1%
CC(C)(C)C1CCC2(CC1)C(Nc1cccc(C(F)(F)F)c1)=NC(=S)N2CC#N (stereo not given) | inconclusive: 8.28 µM [inhibitor, partial curve, poor fit] | 

Next part

SMILES | Potency | activity change, negative = inhibition
Cc1cccc([C@H](C)c2cnc[nH]2)c1C | active: 4.26 µM | 
CCOC(=O)Cn1c(=O)c(F)cn(Cc2ccc(OC)c([N+](=O)[O-])c2)c1=O | active: 10.4 µM | 
COc1ccc(CN2CCCC(C(=O)c3ccc(Cl)cc3)C2)cc1Cn1cncn1 (stereo not given) | active: 10.4 µM | 
C=CCc1cc(C)ccc1OCCCC(C(=O)OCC)C(=O)OCC |  | inactive: 0%
Cc1cccc(C)c1NC(=O)COC(=O)c1ccccc1Nc1ccccc1 | inconclusive: 11.7 µM [inhibitor, single point] | 
C/C(=N/NC(=O)c1ccc(Br)o1)C(C)C | inconclusive: 3.7 µM [inhibitor, partial curve, poor fit] | 
O=C(CN(C(=O)CCC(=O)Nc1nccs1)c1cccc(F)c1)NCc1ccccc1 |  | inactive: 36.9%
COCCc1nc2ccc(C(=O)NCc3cccc(-n4cccn4)c3)cc2o1 | inconclusive: 14.7 µM [inhibitor, single point] | 
Cc1ccccc1C(=O)N1CCN(c2ccc(NC(=S)NC(=O)c3ccco3)cc2)CC1 |  | inactive: -27.2%
Cc1ccc(NC(=O)c2cc(=O)c3ccccc3o2)cc1S(=O)(=O)N1CCCCC1 | inconclusive: 1.85 µM [inhibitor, partial curve, poor fit] | 
CC(OC(=O)CC(C)c1ccccc1)C(=O)Nc1ccc(Cl)cn1 (stereo not given) |  | inactive: 22.2%
Cc1ccc(NC(=O)c2cc(-c3ccco3)nc3ccccc23)cc1S(=O)(=O)N1CCOCC1 | inconclusive: 10.4 µM [inhibitor, single point] | 
CCOc1cc(/C=N/Nc2nc(-c3cccc(S(=O)(=O)N4CCCC4)c3)cs2)ccc1O | active: 10.4 µM | 
COc1cc(C2C(C(=O)Nc3ccc(F)cc3)=C(C)Nc3nc(CCCO)nn32)cc(OC)c1OC (stereo not given) | inconclusive: 10.4 µM [inhibitor, single point] | 
N#CCCn1c(SCC(=O)Nc2ccc(N3CCOCC3)cc2)nc2ccccc21 | inconclusive: 11.7 µM [inhibitor, partial curve] | 
COc1ccc(S(=O)(=O)N2CCC(C(=O)NC3CCCC3)CC2)cc1OC | inconclusive: 20.8 µM [inhibitor, single point] | 
CNC(C)Cc1ccccc1Sc1ccc(O)cc1 (stereo not given) | inconclusive: 10.4 µM [inhibitor, single point] | 
Cc1cc(C)n(CC(O)Cn2ccc3ccccc32)n1 (stereo not given) | inconclusive: 9.28 µM [inhibitor, partial curve, poor fit] | 
CCc1cccc2c1NC(=O)C21OCCO1 | inconclusive: 3.7 µM [inhibitor, partial curve, poor fit] | 
Cc1ccc(NC(=O)CSc2nc(CSc3ccc(C)cc3)cc(=O)[nH]2)cc1 |  | inactive: -16.4%
Cn1c(=O)c2[nH]c(Nc3ccccc3)nc2n(C)c1=O | inconclusive: 18.5 µM [inhibitor, single point] | 
CN(c1ccccc1)S(=O)(=O)c1ccc(Cl)c(C(=O)NCCc2c[nH]c3ccccc23)c1 | active: 9.28 µM | 

Compounds above that have a CF3 group, in the order listed:
SMILES | Potency | activity change, negative = inhibition
CC(C)(C)C1CCC2(CC1)C(Nc1cccc(C(F)(F)F)c1)=NC(=S)N2CC#N (stereo not given) | inconclusive: 8.28 µM [inhibitor, partial curve, poor fit] | 
CC(=O)OC1(C(F)(F)F)Oc2ccccc2NC1=O (stereo not given) |  | inactive: 42.3%
CC(=O)Nc1ccc(S(=O)(=O)NC2(C(F)(F)F)C(=O)Nc3c2c(=O)[nH]c(=O)n3Cc2cccnc2)cc1 (stereo not given) |  | inactive: 26.2%
